# Measurements reported in PubChem BioAssay AID652243 (Drosophila RNAi Screening Center, 2013)
# Purpose: 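Knock-downs that decrease or increase androgen receptor reporter signal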 (primary screen)
# Cells: Drosophila S2R+ cells
# Knock-down reagent: long dsRNA against Drosophila genes
# Timing: 72 h (48 h, then 24 h hormone)
# Challenge: synthetic androgen R1881 at 10 nM for 24 h
# Measurement: 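Per-well raw luminescence of the androgen-driven firefly reporter and of the Renilla control, two replicates each, without normalisation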
# Scale: firefly reporter light: higher = more light from androgen-responsive reporter; Renilla control light: higher = more constitutive control signal (cell number, transfection)
# Call rule: 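Hit when the log firefly-to-Renilla ratio dropped or increased by a fixed fold versus the mean of GFP or LacZ controls across duplicate plates; lowering cut given as 1.5 and as 3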
# Meaning of the calls: active = hit: reporter lowered or raised; inactive = no hit
# The screen tested about 24,000 reagents; below is a random part of those that have a named target and a result. In the full data, 246 (1%) were called active. 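Plates not normalised; calls are printed but the firefly/Renilla ratio behind them is not deposited; fold cut for lowering reported inconsistently.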 The raw values are shown without normalisation. A plus sign joins genes that one reagent is predicted to hit. Not stated in the record: the amount of reagent.
The opening 3 records, ahead of the listing:
target,amplicon,"firefly reporter light, replicate 1","firefly reporter light, replicate 2","Renilla control light, replicate 1","Renilla control light, replicate 2",activity call
Art9,DRSC16584,1.50e5,1.67e5,2.39e6,2.83e6,inactive
cib,DRSC18660,2.21e5,2.07e5,1.85e6,1.93e6,inactive
Serinc,DRSC11296,24821,22361,2.58e5,1.47e5,inactive

The list itself, from the first entry:
target,amplicon,"firefly reporter light, replicate 1","firefly reporter light, replicate 2","Renilla control light, replicate 1","Renilla control light, replicate 2",activity call
Art9,DRSC16584,1.50e5,1.67e5,2.39e6,2.83e6,inactive
cib,DRSC18660,2.21e5,2.07e5,1.85e6,1.93e6,inactive
Serinc,DRSC11296,24821,22361,2.58e5,1.47e5,inactive
MSBP,DRSC20146,1.54e5,1.31e5,8.02e5,9.86e5,inactive
Lamtor2 + CG30120,DRSC05726,1.21e5,1.39e5,2.34e5,2.61e5,inactive
Lamtor2 + CG30120,DRSC06922,1.65e5,1.41e5,2.27e6,1.62e6,inactive
CG3036,DRSC00260,3.50e5,6.55e5,1.48e6,2.39e6,inactive
CG3036,DRSC00562,7.86e5,9.85e5,1.57e6,1.92e6,inactive
CG3036,DRSC24856,7.26e5,9.00e5,1.02e6,1.02e6,inactive
fs(2)ltoPP43,DRSC02067,68360,60146,8.22e5,5.61e5,inactive
fs(2)ltoPP43,DRSC24493,4.59e5,3.36e5,5.61e5,3.68e5,inactive
thw,DRSC12552,41152,80544,1.28e6,1.53e6,inactive
CG11837,DRSC14397,50670,46013,3.81e5,3.87e5,inactive
VGAT,DRSC07160,68424,85971,1.65e6,1.65e6,inactive
PCNA2,DRSC02030,99691,1.13e5,1.44e6,1.55e6,inactive
CR40100,DRSC38722,6.85e5,4.46e5,1.44e6,1.96e6,inactive
alpha-Est4,DRSC12616,74401,56849,1.11e6,1.20e6,inactive
alpha-Est4,DRSC27280,3.39e5,2.81e5,6.63e5,6.59e5,inactive
CG12744,DRSC06164,1.15e6,1.53e6,1.85e6,2.08e6,inactive
Fum3,DRSC10592,1.74e5,1.28e5,1.71e6,1.46e6,inactive
Fum3,DRSC25432,5.48e5,5.56e5,7.04e5,7.61e5,inactive
CG15478,DRSC18057,3.52e5,3.52e5,3.50e6,3.55e6,inactive
CG15478,DRSC25277,5.24e5,7.10e5,7.83e5,6.46e5,inactive
CR4575,DRSC18372,3.26e5,4.41e5,2.94e6,2.35e6,inactive
